# Test results reported in patent publication EP1891105B1, “OXYNTOMODULIN ANALOGUES AND THEIR EFFECTS ON FEEDING BEHAVIOUR” (Imperial Innovations Limited, priority 2005, dated 2012).
# Part of at least one peptide drawing is inferred or uncertain, most often the ends. Non-standard residues stand in square brackets, D forms with d. No end group written: not given here. *: point of attachment. Lauroyl = CCCCCCCCCCCC(=O)*
# Assay: Food intake of fasted mice after injection of peptide
# Format: in vivo, C57BL/6 mice
# Settings: Example 57; mice; 6 or 20 nmol/kg
# Procedure: Animals: All animal procedures were approved by the British Home Office Animals (Scientific Procedures) Act 1986 (Project License number 70/5516). Male C57BL/6 mice and male Wistar rats were maintained in individual cages under controlled temperature (21-23 °C) with ad libitum access to standard chow (RM1 diet, SDS Ltd, Witham, Essex, UK) and to water. The light cycle was 14 hours light and 10 hours dark with 'dawn' at 07:00, lights full on at 07:30, 'dusk' at 21:00 with lights off at 21:30. These times were fixed in the animal facility.
# All animals were handled almost daily for on average nine days prior to the first study. During the acclimatization period, each animal received two saline injections at least two days apart in order to further acclimatize to the procedure on the study days.
# Intra-peritoneal (IP) injections: IP injections were administered to mice via a 0.5 ml syringe with a 29-gauge needle (maximum injection volume 0.1 ml). Maximum volume administered IP was 0.1 ml.
# Study protocol: C57BL/6 mice (20-35 g) were injected with the peptide under investigation following a 20-hour fast Wistar rats were injected following a 24-hour fast. A pre-weighed quantity of chow was presented immediately after injection. The remaining food was measured at regular time intervals (e.g. 1, 2, 3,4, 6, 8, 24 and 48 hours following injection) and food intake calculated.
substance,measurement,value
[dH]SDGTFTSDYSKYLEEEVVRLFIQWLKNGGPSKNNIAAAEEK(Lauroyl) [23/112],food intake,markedly decreased cumulative food intake in comparison to the saline control
